According to article PMC1865385:
No constants are given. Whether binding was seen depends on the method and setting. In cells and extracts the contact can be indirect. Some results given as binding are weak or reduced against the parent protein; the word gives no strength.

By UniProt entry, the sequences of proteins in these tests, tags left out.
UniProt P62258: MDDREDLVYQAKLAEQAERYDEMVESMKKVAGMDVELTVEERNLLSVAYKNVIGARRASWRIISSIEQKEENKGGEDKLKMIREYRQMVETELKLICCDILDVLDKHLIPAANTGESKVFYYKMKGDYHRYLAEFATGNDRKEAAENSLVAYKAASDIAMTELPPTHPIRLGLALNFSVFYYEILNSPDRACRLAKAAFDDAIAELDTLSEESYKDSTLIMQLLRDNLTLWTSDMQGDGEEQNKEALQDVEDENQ

What was measured:
[1] = biological target: human 14-3-3ε protein (wild type) (human) (UniProt P62258); experiment: co-IP; 1 mg total protein extract of yeast expressing wild-type human 14-3-3ε, incubated at 30°C for 30 min in the absence of R18; immunoprecipitation with anti-14-3-3ε antibody, blot with anti-Ras2 antibody
[2] = biological target: human 14-3-3ε protein (wild type) (human) (UniProt P62258); experiment: co-IP; 1 mg total protein extract of yeast expressing wild-type human 14-3-3ε, incubated at 30°C for 30 min with 100 μM R18 peptide; immunoprecipitation with anti-14-3-3ε antibody, blot with anti-Ras2 antibody

- binding [1]: binds
B1: yeast Ras2 protein (protein, UniProt P01120 1-322)
chain: MPLNKSNIREYKLVVVGGGGVGKSALTIQLTQSHFVDEYDPTIEDSYRKQVVIDDEVSILDILDTAGQEEYSAMREQYMRNGEGFLLVYSITSKSSLDELMTYYQQILRVKDTDYVPIVVVGNKSDLENEKQVSYQDGLNMAKQMNAPFLETSAKQAINVEEAFYTLARLVRDEGGKYNKTLTENDNSKQTSQDTKGSGANSVPRNSGGHRKMSNAANGKNVNSSTTVVNARNASIESKTGLAGNQATNGKTQTDRTNIDNSTGQAGQANAQSANTVNNRVNNNSKAGQVSNAKQARKQQAAPGGNTSEASKSGSGGCCIIS
- binding [2]: no binding (condition: with 100 μM of R18 peptide)
